Screening data, single-dose tests

The chains behind the UniProt entries cited, without tags or fusion partners. Residues count along the entry.
UniProt Q4DA54, 1-478: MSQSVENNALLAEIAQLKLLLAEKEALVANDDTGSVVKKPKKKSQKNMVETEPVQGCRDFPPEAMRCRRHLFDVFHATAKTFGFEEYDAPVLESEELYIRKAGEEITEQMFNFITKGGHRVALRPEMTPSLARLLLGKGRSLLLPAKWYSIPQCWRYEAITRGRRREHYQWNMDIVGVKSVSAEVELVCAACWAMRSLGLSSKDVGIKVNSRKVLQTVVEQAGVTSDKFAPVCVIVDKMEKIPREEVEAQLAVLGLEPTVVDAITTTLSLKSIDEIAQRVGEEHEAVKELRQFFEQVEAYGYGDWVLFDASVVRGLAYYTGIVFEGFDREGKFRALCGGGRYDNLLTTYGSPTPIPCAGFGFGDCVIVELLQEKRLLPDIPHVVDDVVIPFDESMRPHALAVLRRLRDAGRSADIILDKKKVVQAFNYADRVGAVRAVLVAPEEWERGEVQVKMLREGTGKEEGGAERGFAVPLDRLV

Measurements from “University of Dundee, Small-Polar-MMV Screening Library” (2021), ChEMBL document CHEMBL3988442.

Results are given as percent effect.
The record does not define 0% and 100%; most values in the screen are far below 50% and negative numbers occur (in some assays of this library far below -100).
This is an unselected part of the compounds tested.

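Histidine-tRNA ligase, Trypanosoma cruzi CL Brener (UniProt Q4DA54). Enzyme assay of histidyl-tRNA synthetase; the read-out is not stated. Tested at 30 µM. Direction is inferred from retests: higher values go with stronger inhibition. Size under these conditions: about 69,000 compounds, about 31 of them at 50% or above in at least one test.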

| Compound | effect |
|---|---|
| `CNC(=O)C1CN(C(=O)c2ccccc2)Cc2cn(C)nc21` (stereo not drawn) | 6.818% |
| `CC(NCCn1c(=O)oc2ccccc21)c1ccccn1` (stereo not drawn) | 7.778% |
| `O=C(O)C1(Oc2cccc(F)c2)CCN(C2CCOCC2)CC1` | 4.95% |
| `O=C(c1cnc(NCCC2CCCO2)c(Cl)c1)N1CCOCC1` (stereo not drawn) | 0% |
| `Cc1ccc(S(=O)(=O)N2CCOCC2C(N)=O)c(F)c1` (stereo not drawn) | -1.754% |
| `COc1ccccc1-n1nc(-c2ccco2)n(CC(=O)NC2CC2)c1=O` | 2.4% |
| `Cc1ccc(CC(=O)N2CCCC2Cn2nc(C)cc2C)cn1` (stereo not drawn) | -0.2907% |
| `COc1ccc(N2CCN(C[C@@H](C)CO)CC2=O)cc1` | -9.948% |
| `O=C(O)c1ccccc1-c1ccc(CN2CCC(CO)C2)cc1` (stereo not drawn) | 8.812% |
| `N#Cc1cccc(CNCCC(=O)N2CCc3sccc3C2)c1` | 4.167% |
| `CCCc1nc(CN2CCCC(Cn3cncn3)C2)no1` (stereo not drawn) | 1.88% |
| `O=C(O)c1ccccc1-c1c(-c2ccccc2)ncn1CC1CCCO1` (stereo not drawn) | 4.938% |
| `COc1ccc(CCN(C)C(C(=O)O)c2ccc(F)c(C)c2)cc1OC` (stereo not drawn) | 5.263% |
| `CCCc1cc(C(=O)N2CCC3(CC2)CN(CCN(C)C)C(=O)O3)no1` | -101.1% |
| `CNC(=O)C1(c2cnccn2)CCCN1C(=O)c1ccccc1` (stereo not drawn) | 8.511% |
| `Cc1cc(CNc2cc(-c3ccoc3C)nn2CCO)c(C)o1` | 8.235% |
| `COc1ccc(C(=O)N2CCC(Nc3cccnn3)CC2)cn1` | 0.2915% |
| `N#Cc1cccc(C(=O)N2CCCC(O)(CO)CC2)c1` (stereo not drawn) | 8.8% |
| `Cc1cccc(CN2C(=O)C[C@H]3[C@@H]2CCN3Cc2ccco2)n1` | 2.404% |
| `CCC(CNC(=O)N1CCOCC2(CCOCC2)C1)c1ccccc1` (stereo not drawn) | 1.478% |
| `CN(C)c1cccc(C(=O)N2CCCSCC2CN2CCCC2)c1` (stereo not drawn) | 4% |
| `CC(C)OCc1nn(C)c2c1CN(Cc1cccs1)CC2` | -1.105% |
| `Cc1cc(C(F)(F)F)c2c(C3CCN(S(=O)(=O)N(C)C)CC3)noc2n1` | 4.865% |
| `CC(C)Cc1noc(C2CCN(C(=O)c3cccs3)CC2)n1` | -3.509% |
| `CN(c1ncccc1CNS(=O)(=O)N1CCOCC1)C1CCCCC1` | -3.571% |
| `CCOc1nc2cnccc2n(CC(=O)NCCc2ccccc2)c1=O` | 1.508% |
| `Cc1noc(CCCC(=O)Nc2ncccc2Br)n1` | 8.621% |
| `CCc1ccc(CN(C)Cc2cnc(S(=O)(=O)CC)n2CCOC)cc1` | 2.513% |
| `Cc1csc2c(=O)n(CCSc3cnn[nH]3)cnc12` | 7.463% |
| `Cc1nn(C)c(N(C)C)c1CNC1CCc2c(F)cccc21` (stereo not drawn) | 2.662% |
| `COC[C@@H]1CCC[C@]12CN(S(=O)(=O)c1cn(C)cn1)CCO2` | 5.028% |
| `NC(=O)C1CN(C(=O)NCC2(c3ccc(F)cc3)CCC2)CCO1` (stereo not drawn) | 6.061% |
| `COCCS(=O)(=O)Nc1ccc(-n2nccc2C(F)(F)F)cc1` | 5.882% |
| `Cc1n[nH]c(C)c1CNc1ccc(-c2nc(C3CC3)no2)cn1` | 15.48% |
| `COc1ncccc1NC(=O)NCC(O)c1ccc(F)cc1F` (stereo not drawn) | 6.391% |
| `c1cc(CN2CCCC(c3nnc(-c4cnccn4)o3)C2)ccn1` (stereo not drawn) | 2.247% |
| `Cc1cccc(C2(CNC(C)c3nnc(C)o3)CCCC2)c1` (stereo not drawn) | -6.154% |
| `Cc1cc(C)nc(Nc2nccnc2C2CCCN(C(C)C)C2)n1` (stereo not drawn) | 2% |
| `C[C@@H]1CN(CCc2ccccc2)C[C@]12CCN(CC(=O)N(C)C)C2=O` | 2.913% |
| `O=C(CCn1ccc2ccccc21)N1CCC(Nc2cccnn2)CC1` | 12.34% |
| `Cc1nc(CN2C(=O)COC3(CCN(Cc4ccco4)CC3)C2C)cs1` (stereo not drawn) | 9.091% |
| `Cc1nn(C)c(Cl)c1C1CCCN1C(=O)c1ccc(N(C)C)nn1` (stereo not drawn) | 5.422% |
| `CN1CCCCc2c1nc1c(c2N)CCCC1` | 6.931% |
| `C[C@@H]1CN(C(=O)CCc2nncn2C)CC[C@@]1(O)C1CCC1` | -27.32% |
| `COc1ccc(OC)c(CNCc2ccnc(N3CCOCC3)c2)c1` | 8.14% |
| `CCC(CC)c1cc(CNC(=O)N2CCOCC2CC)on1` (stereo not drawn) | -3.39% |
| `C[C@H](NC(=O)C1(N(C)Cc2ccccc2)Cc2ccccc2C1)C(N)=O` | 2.186% |
| `CC(=O)NCCNc1nc(-c2ccccn2)nc2c1c(C)nn2C` | 7.389% |
| `CCOc1ccc(C(=O)N2CCCC2c2cnn(C)c2)cn1` (stereo not drawn) | 1.734% |
| `O=S(=O)(c1ccccc1)N1CCCC(Cn2cncn2)C1` (stereo not drawn) | 3.158% |
| `CCc1nc2c(c(N(C)Cc3nncn3CCOC)n1)CCNCC2` | 4.372% |
| `O=C1COc2ccc(S(=O)(=O)NCc3ccccc3)c3c2N1CCC3` | 7.317% |
| `O=C1NCCN1C1CCN(Cc2coc(-c3ccc(F)cc3)n2)CC1` | 2.312% |
| `CCCc1n[nH]c(=O)n1Cc1ccc(OC)cc1` | 1.587% |
| `Cn1c(=O)[nH]c(=O)n2c(CC(=O)Nc3c(Cl)cccc3Cl)cnc12` | 0.5917% |
| `Cc1ccc2oc(SCC(=O)NC(C)(C)C)nc2n1` | 0% |
| `Clc1ccccc1-c1cc(CNc2ncnc3c2CCNCC3)no1` | 9.901% |
| `c1ccc2[nH]c(C3CCN(Cc4nc(C5CC5)no4)CC3)cc2c1` | 6.316% |
| `CN1CCN(C(=O)c2ccc3c(c2)nc(N2CCOCC2)n3C)CC1=O` | -1.339% |
| `Cc1nc(S(=O)(=O)N2CCSCC2)cn1C` | 11.6% |
| `CC(C)c1nc(CN2CCN(C(=O)CC3CCCCC3)CC2)no1` | 1.754% |
| `Cc1cn2nc(N3CCn4c(nnc4C(C)C)C3)sc2n1` | 1.657% |
| `CC(CCc1ccco1)NC(=O)Nc1cc(C(F)(F)F)c[nH]c1=O` (stereo not drawn) | 2.273% |

Once more, the final 4:

{"compound": "Cc1nc(S(=O)(=O)N2CCSCC2)cn1C", "effect": 11.6}
{"compound": "CC(C)c1nc(CN2CCN(C(=O)CC3CCCCC3)CC2)no1", "effect": 1.754}
{"compound": "Cc1cn2nc(N3CCn4c(nnc4C(C)C)C3)sc2n1", "effect": 1.657}
{"compound": "CC(CCc1ccco1)NC(=O)Nc1cc(C(F)(F)F)c[nH]c1=O", "stereo": "stereo not drawn", "effect": 2.273}